Values of other authors in patent US20110319451A1, “5-Ht6 Receptor and Modulators Thereof for the Treatment of Insulin-Related Disorders” (priority 2008, published 2011).
At least one structure is not confirmed: it was looked up by name or label, or the drawing left a doubt. Some results were stated once for a whole list of compounds, not compound by compound.

Amino acid sequences for entries named in this document (tags omitted).
UniProt P50406, whole entry: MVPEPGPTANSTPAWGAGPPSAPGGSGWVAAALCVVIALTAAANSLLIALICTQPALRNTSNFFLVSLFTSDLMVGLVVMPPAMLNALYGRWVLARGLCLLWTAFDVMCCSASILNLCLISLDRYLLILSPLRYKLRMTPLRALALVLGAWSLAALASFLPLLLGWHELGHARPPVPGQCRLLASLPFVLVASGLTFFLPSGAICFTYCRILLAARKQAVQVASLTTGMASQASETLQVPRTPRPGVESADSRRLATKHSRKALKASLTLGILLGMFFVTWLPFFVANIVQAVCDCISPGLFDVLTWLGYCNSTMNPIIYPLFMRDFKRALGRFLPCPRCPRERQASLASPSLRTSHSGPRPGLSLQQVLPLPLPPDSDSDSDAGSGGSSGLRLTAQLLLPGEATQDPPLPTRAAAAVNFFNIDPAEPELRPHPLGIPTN

Columns and labels:
[1] = target: 5-HT6 receptor (Homo sapiens, UniProt P50406); details: cited from earlier work
[2] = test system: HIV-positive patients; details: treatment for three months; cited from earlier work

In the case of `CN1CCN(C2Cc3ccccc3Sc3ccc(Cl)cc32)CC1` (stereo not drawn) [octoclothepin], the Ki [1] is listed as under 50 nM.

In the case of `CN(CCOc1ccc(CC2SC(=O)NC2=O)cc1)c1ccccn1` (stereo not drawn) [rosiglitazone], the “improvement on a standard test to measure insulin sensitivity” value [2] is listed as about 20% and the “increase of fat on face, arms and legs” value [2] is listed as 24%.
